Measurements reported in the supplement of paper PMC10849652.
Some of the results follow.

Chains of the proteins cited; added tags and fusions are not shown. Lines headed by an entry give the natural chain unless they say otherwise; changes in a name come on top.
UniProt Q6DKK2: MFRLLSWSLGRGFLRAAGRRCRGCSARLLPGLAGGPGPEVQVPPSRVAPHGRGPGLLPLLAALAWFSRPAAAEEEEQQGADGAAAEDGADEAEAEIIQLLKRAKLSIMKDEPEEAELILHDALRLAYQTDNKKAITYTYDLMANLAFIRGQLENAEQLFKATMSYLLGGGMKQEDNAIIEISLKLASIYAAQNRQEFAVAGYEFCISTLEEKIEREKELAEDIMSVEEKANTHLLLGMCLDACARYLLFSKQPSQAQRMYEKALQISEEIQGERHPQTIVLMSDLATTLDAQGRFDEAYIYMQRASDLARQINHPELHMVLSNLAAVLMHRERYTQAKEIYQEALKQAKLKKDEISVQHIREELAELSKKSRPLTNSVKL
UniProt A6NHL2: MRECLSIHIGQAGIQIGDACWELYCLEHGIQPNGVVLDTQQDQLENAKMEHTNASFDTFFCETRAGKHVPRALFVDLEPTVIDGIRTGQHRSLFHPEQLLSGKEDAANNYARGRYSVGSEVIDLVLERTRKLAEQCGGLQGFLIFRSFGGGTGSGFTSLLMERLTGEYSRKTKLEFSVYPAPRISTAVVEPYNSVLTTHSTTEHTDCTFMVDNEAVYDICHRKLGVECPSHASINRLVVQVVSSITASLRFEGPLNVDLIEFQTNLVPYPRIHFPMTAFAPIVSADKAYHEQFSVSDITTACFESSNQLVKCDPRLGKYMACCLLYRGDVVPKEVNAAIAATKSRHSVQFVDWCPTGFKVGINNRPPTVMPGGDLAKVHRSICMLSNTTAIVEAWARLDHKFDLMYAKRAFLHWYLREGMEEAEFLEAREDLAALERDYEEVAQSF
UniProt Q14157: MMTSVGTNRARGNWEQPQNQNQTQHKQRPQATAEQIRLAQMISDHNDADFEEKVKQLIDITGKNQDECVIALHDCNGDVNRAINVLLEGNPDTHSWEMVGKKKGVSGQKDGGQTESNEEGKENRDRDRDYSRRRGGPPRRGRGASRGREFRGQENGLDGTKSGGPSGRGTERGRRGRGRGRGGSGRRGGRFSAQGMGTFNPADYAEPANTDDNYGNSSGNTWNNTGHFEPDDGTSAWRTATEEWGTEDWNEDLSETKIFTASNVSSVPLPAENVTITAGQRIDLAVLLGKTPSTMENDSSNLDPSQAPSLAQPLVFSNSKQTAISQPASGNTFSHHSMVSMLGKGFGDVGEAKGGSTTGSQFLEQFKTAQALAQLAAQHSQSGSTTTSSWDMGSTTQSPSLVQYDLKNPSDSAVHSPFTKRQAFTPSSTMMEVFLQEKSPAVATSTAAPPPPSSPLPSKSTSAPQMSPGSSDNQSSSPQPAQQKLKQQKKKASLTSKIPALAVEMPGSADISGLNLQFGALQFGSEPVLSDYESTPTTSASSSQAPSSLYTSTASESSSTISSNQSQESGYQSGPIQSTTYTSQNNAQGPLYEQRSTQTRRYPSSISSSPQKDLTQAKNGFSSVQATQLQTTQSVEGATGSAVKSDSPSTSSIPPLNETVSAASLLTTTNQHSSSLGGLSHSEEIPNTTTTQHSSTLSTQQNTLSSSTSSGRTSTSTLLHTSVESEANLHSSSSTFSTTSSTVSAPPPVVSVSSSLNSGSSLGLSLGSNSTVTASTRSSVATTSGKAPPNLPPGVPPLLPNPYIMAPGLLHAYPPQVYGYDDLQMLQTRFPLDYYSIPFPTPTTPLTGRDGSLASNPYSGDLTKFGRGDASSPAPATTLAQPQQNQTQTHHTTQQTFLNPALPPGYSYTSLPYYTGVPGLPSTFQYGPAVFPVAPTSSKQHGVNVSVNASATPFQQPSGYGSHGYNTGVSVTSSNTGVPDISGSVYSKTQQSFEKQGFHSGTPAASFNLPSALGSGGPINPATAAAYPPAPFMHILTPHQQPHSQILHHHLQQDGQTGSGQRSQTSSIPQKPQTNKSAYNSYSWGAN
UniProt P0DPH7, whole entry, looked up: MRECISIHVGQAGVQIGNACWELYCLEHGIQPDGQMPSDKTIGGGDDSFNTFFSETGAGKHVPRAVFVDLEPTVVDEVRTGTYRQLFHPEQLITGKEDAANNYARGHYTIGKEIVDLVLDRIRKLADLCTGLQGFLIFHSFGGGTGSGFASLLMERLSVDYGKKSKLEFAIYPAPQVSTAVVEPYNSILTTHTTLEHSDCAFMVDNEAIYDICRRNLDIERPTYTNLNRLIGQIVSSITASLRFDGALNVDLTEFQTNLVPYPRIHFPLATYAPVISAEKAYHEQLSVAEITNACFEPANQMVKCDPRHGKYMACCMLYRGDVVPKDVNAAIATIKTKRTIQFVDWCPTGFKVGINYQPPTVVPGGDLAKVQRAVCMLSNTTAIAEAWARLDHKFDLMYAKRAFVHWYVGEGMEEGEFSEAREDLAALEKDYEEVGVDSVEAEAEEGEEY
UniProt Q9UBT2: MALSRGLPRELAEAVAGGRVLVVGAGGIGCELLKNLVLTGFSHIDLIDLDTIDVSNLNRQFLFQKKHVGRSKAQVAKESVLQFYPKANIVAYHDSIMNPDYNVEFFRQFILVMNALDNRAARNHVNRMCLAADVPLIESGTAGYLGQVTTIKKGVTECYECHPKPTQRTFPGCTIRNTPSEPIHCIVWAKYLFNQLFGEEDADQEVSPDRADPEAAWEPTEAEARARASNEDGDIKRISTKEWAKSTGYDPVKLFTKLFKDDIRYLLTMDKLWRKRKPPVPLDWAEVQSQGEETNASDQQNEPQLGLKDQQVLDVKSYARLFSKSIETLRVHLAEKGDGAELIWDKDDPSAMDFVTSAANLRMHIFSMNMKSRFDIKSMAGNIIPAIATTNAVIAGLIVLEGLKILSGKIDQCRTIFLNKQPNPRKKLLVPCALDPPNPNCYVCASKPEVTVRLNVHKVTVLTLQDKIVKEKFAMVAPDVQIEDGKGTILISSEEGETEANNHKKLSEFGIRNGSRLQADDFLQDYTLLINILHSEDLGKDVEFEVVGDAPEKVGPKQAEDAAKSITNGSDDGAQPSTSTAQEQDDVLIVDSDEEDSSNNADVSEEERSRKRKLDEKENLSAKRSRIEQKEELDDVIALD
UniProt Q6NXR4: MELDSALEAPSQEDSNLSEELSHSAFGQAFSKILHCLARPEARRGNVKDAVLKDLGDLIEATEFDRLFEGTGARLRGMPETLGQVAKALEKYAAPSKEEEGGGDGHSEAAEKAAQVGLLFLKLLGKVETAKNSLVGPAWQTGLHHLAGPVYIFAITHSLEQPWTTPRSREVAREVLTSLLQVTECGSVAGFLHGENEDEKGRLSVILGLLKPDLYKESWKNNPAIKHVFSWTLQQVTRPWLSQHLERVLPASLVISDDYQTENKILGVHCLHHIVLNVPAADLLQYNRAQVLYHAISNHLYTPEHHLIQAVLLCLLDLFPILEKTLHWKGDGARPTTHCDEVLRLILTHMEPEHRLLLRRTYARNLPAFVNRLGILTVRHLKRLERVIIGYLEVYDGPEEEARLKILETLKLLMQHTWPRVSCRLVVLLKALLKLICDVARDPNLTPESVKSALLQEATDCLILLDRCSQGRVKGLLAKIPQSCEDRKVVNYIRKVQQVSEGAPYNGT
UniProt P68036, whole entry, looked up: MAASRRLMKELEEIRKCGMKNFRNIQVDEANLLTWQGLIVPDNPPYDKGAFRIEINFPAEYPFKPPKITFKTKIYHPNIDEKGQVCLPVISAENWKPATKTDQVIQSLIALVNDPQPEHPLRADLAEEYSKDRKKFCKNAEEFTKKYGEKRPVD
UniProt P04350, whole entry, looked up: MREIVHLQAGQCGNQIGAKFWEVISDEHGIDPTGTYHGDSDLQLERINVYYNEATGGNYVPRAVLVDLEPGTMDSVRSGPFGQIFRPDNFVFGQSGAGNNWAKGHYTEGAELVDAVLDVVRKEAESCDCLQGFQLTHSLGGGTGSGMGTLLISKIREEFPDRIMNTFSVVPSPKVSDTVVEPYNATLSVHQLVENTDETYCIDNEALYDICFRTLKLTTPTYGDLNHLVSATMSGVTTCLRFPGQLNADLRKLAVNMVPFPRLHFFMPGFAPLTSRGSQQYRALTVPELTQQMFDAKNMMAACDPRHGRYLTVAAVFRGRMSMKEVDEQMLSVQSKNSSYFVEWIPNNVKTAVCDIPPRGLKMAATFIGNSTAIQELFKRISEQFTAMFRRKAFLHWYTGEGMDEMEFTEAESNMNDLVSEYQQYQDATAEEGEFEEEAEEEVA
UniProt P68366, whole entry, looked up: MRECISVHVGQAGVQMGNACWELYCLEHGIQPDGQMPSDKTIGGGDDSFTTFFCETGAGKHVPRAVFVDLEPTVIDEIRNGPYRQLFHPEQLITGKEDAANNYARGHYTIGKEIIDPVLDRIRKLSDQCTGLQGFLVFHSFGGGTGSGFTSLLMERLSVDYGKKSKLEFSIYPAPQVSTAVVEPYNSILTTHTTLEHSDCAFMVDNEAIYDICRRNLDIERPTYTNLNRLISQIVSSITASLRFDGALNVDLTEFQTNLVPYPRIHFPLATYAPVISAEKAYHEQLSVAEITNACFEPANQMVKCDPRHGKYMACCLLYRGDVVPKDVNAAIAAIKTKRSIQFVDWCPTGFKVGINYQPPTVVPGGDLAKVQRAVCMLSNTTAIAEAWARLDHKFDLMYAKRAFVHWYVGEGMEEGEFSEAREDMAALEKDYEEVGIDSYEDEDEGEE
UniProt Q15819: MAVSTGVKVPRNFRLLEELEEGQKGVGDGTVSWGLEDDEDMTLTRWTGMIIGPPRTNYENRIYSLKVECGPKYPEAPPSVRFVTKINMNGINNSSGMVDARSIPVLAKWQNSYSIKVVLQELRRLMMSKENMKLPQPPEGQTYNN
UniProt Q99614: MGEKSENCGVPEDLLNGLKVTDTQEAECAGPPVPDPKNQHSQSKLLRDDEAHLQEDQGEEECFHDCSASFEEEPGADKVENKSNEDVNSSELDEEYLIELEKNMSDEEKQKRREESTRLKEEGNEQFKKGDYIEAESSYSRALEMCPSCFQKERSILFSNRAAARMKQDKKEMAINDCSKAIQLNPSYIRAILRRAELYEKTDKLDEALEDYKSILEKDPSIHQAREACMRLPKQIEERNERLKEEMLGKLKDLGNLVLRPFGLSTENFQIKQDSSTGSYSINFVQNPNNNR
UniProt O43396: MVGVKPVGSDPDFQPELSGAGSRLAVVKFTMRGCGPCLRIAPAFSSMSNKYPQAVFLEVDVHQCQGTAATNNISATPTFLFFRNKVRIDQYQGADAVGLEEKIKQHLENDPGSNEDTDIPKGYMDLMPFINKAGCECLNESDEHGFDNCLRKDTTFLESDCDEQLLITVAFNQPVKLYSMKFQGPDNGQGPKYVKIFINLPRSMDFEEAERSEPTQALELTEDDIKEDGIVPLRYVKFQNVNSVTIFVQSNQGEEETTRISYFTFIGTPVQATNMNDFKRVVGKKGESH
UniProt Q9BRA2: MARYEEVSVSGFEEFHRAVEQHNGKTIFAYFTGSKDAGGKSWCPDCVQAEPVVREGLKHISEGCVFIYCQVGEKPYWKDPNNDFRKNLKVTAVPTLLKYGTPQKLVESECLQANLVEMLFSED
UniProt Q9NV66: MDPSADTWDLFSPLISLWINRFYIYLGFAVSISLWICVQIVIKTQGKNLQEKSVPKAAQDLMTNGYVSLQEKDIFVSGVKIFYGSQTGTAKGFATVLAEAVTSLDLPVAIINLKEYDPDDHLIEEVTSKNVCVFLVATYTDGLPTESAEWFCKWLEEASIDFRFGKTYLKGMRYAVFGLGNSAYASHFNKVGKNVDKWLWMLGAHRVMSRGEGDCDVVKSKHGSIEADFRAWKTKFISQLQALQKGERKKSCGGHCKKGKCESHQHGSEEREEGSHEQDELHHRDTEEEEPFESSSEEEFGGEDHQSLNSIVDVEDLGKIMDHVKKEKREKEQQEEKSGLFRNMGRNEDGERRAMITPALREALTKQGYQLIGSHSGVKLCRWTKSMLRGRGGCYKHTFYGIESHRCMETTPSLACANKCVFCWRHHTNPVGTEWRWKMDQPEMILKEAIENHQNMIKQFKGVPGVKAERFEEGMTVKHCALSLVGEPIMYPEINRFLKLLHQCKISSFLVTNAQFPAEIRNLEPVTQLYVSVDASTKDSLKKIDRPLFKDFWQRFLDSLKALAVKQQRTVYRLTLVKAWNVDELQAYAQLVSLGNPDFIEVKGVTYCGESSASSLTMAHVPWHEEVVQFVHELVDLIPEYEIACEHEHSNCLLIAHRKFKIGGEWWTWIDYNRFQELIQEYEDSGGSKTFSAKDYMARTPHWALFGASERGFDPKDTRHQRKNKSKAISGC
UniProt Q7Z7E8: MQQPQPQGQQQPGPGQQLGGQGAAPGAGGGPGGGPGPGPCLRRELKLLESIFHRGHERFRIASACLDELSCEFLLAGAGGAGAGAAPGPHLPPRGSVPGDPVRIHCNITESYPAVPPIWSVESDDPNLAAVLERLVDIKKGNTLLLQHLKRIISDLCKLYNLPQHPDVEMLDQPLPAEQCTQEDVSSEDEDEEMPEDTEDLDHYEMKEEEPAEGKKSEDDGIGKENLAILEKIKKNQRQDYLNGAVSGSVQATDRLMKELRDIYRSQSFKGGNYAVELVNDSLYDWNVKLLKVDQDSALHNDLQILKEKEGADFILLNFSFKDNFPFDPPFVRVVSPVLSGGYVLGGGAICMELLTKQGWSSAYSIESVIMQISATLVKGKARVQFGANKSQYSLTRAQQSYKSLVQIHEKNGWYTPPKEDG

Key:
Experiment in all cases: log2 fold change, soluble protein after heating vs DMSO (PISA); higher = thermal stabilisation; K562 cells, 10 uM, 30 min; active = over 0.2 and 3.5 SD of the protein, either way, in both replicates (recomputed)
[1] = compound: COC1=CC=C(C=C1)CN2C=CC3=C2C=C(C=C3)C(=O)NO
Outline: (§1)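 K562 cells at 2×10^6 cells/mL were exposed to 10 μM compound for 30 min, then aliquots were heated for 3 min across 48°C-58°C, pooled, and extracted in PBS containing 0.5% NP-40 at 4°C. The supernatant after 21,000xg for 90 min was taken as soluble protein and measured by TMTpro 16plex LC-MS/MS with channel sums equalised. Thermal stability is reported relative to control samples, with values from duplicates. Fold changes are given on a log2 scale.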

filanesib = compound: CON(C)C(=O)N1N=C(c2cc(F)ccc2F)S[C@@]1(CCCN)c1ccccc1 [filanesib]
Outline: as §1

zotarolimus = compound: CO[C@H]1C[C@@H]2CC[C@@H](C)[C@@](O)(O2)C(=O)C(=O)N2CCCC[C@H]2C(=O)O[C@H]([C@H](C)C[C@@H]2CC[C@H](n3cnnn3)[C@H](OC)C2)CC(=O)[C@H](C)/C=C(\C)[C@@H](O)[C@@H](OC)C(=O)[C@H](C)C[C@H](C)/C=C/C=C/C=C/1C [zotarolimus]
Outline: as §1

idasanutlin = compound: COc1cc(C(=O)O)ccc1NC(=O)[C@@H]1N[C@@H](CC(C)(C)C)[C@](C#N)(c2ccc(Cl)cc2F)[C@H]1c1cccc(Cl)c1F [idasanutlin]
Outline: as §1

alisertib = compound: COc1cc(Nc2ncc3c(n2)-c2ccc(Cl)cc2C(c2c(F)cccc2OC)=NC3)ccc1C(=O)O [alisertib]
Outline: as §1

[2] = compound: COc1cc2nc(-c3cc(F)ccc3O)nc(N[C@@H]3CNC[C@H]3C(C)(C)O)c2cc1OC
Outline: as §1

gefitinib = compound: COc1cc2ncnc(Nc3ccc(F)c(Cl)c3)c2cc1OCCCN1CCOCC1 [gefitinib]
Outline: as §1

[3] = compound: COc1cccc2cc(-c3nc([C@H]4CC[C@H](C(=O)O)CC4)n4ncnc(N)c34)[nH]c12
Outline: as §1

lapatinib = compound: CS(=O)(=O)CCNCc1ccc(-c2ccc3ncnc(Nc4ccc(OCc5cccc(F)c5)c(Cl)c4)c3c2)o1 [lapatinib]
Outline: as §1

pictilisib = compound: CS(=O)(=O)N1CCN(Cc2cc3nc(-c4cccc5[nH]ncc45)nc(N4CCOCC4)c3s2)CC1 [pictilisib]
Outline: as §1

Measured: log2 fold change

TSR2 (UniProt Q969E8)
inactive: [1] 0.208 | filanesib 0.029 | zotarolimus 0.059 | idasanutlin 0.033 | alisertib -0.077 | [2] -0.078 | gefitinib -0.03 | [3] -0.015 | lapatinib 0.028 | pictilisib 0.093

TTC19 (UniProt Q6DKK2)
inactive: [1] -0.05 | filanesib -0.078 | zotarolimus -0.04 | idasanutlin -0.077 | alisertib -0.079 | [2] -0.058 | gefitinib 0.037 | [3] 0.064 | lapatinib 0.065 | pictilisib -0.037

TUBAL3 (UniProt A6NHL2)
inactive: [1] -0.037 | filanesib -0.058 | zotarolimus -0.064 | idasanutlin -0.218 | alisertib 0.048 | [2] 0 | gefitinib -0.059 | [3] 0.015 | lapatinib 0.075 | pictilisib 0.052

UBAP2L isoform 1 (UniProt Q14157)
inactive: [1] 0.016 | filanesib -0.014 | zotarolimus 0.011 | idasanutlin 0.059 | alisertib -0.05 | [2] 0.213 | gefitinib 0.074 | [3] 0.103 | lapatinib -0.248 | pictilisib -0.114

TUBA3C (UniProt P0DPH7)
inactive: [1] -0.029 | filanesib -0.068 | zotarolimus 0.008 | idasanutlin -0.047 | alisertib -0.018 | [2] 0.007 | gefitinib -0.046 | [3] 0.07 | lapatinib 0.051 | pictilisib 0.087

TUBB6 (UniProt K7ES63)
inactive: [1] -0.181 | filanesib 0.146 | zotarolimus -0.436 | idasanutlin -0.064 | alisertib 0.417 | [2] 0.059 | gefitinib 0.17 | [3] 0.138 | lapatinib -0.105

TUBB4B (UniProt P68371)
inactive: [1] 0.027 | filanesib -0.133 | zotarolimus 0.031 | idasanutlin -0.048 | alisertib 0.055 | [2] -0.057 | gefitinib -0.011 | [3] 0.023 | lapatinib -0.045 | pictilisib -0.046

UBA2 (UniProt Q9UBT2)
inactive: [1] 0.004 | filanesib -0.025 | zotarolimus 0.034 | idasanutlin -0.035 | alisertib 0.009 | [2] 0.037 | gefitinib -0.028 | [3] -0.009 | lapatinib -0.005 | pictilisib 0.073

TSR3 (UniProt Q9UJK0)
inactive: [1] -0.009 | filanesib 0.06 | zotarolimus -0.017 | idasanutlin 0.052 | alisertib -0.056 | [2] 0.02 | gefitinib -0.014 | [3] 0.022 | lapatinib 0.011 | pictilisib 0.004

UBE2T (UniProt Q9NPD8)
inactive: [1] -0.046 | filanesib 0.026 | zotarolimus 0.049 | idasanutlin 0.008 | alisertib -0.014 | [2] 0.131 | gefitinib 0.049 | [3] 0.023 | lapatinib -0.02 | pictilisib 0.074

UAP1L1 (UniProt Q3KQV9)
inactive: [1] -0.054 | filanesib -0.1 | zotarolimus -0.038 | idasanutlin -0.037 | alisertib -0.052 | [2] 0.01 | gefitinib 0.015 | [3] 0.078 | lapatinib 0.027 | pictilisib -0.014

TTI2 (UniProt Q6NXR4)
inactive: [1] 0.012 | filanesib 0.06 | zotarolimus -0.008 | idasanutlin -0.04 | alisertib 0.028 | [2] -0.034 | gefitinib -0.081 | [3] -0.025 | lapatinib 0.033

UBE2Z (UniProt Q9H832)
inactive: [1] 0.036 | filanesib -0.072 | zotarolimus 0.014 | idasanutlin -0.049 | alisertib -0.069 | [2] 0.038 | gefitinib -0.002 | [3] 0.007 | lapatinib 0.04 | pictilisib -0.025

TSPAN31 (UniProt Q12999)
inactive: [1] -0.083 | filanesib -0.033 | zotarolimus -0.089 | idasanutlin -0.038 | alisertib -0.13 | [2] -0.013 | gefitinib 0.032 | [3] 0.113 | lapatinib -0.064

UBE2L3 isoform 3 (UniProt P68036)
inactive: [1] -0.037 | filanesib -0.033 | zotarolimus 0.002 | idasanutlin 0.03 | alisertib -0.065 | [2] 0.01 | gefitinib 0.004 | [3] -0.002 | lapatinib -0.036 | pictilisib 0.008

TUBB1 (UniProt Q9H4B7)
inactive: [1] 0.125 | filanesib -0.1 | zotarolimus 0.044 | idasanutlin -0.025 | alisertib -0.008 | [2] 0.023 | gefitinib 0.028 | [3] 0.02 | lapatinib 0.058 | pictilisib -0.048

TUBB4A (UniProt P04350)
inactive: [1] 0.188 | filanesib -0.048 | zotarolimus 0.085 | idasanutlin 0.062 | alisertib -0.041 | [2] -0.104 | gefitinib -0.033 | [3] 0.14 | lapatinib 0.052

TSPAN14 (UniProt Q8NG11)
inactive: [1] -0.058 | filanesib -0.025 | zotarolimus -0.054 | idasanutlin -0.017 | alisertib 0.054 | [2] -0.027 | gefitinib -0.016 | [3] 0.067 | lapatinib -0.078 | pictilisib 0.219

TUBA4A (UniProt P68366)
inactive: [1] 0.032 | filanesib -0.108 | zotarolimus 0.044 | idasanutlin -0.108 | alisertib -0.027 | [2] -0.043 | gefitinib 0.019 | [3] 0.071 | lapatinib 0.04 | pictilisib 0.04

TUBGCP3 (UniProt Q96CW5)
inactive: [1] -0.068 | filanesib 0.019 | zotarolimus 0.007 | idasanutlin -0.02 | alisertib -0.149 | [2] -0.093 | gefitinib 0.361 | [3] 0.045 | lapatinib 0.182 | pictilisib -0.023

Taken from the results shown (2 entries):
TUBB1 (UniProt Q9H4B7)
inactive: [1] 0.125 | filanesib -0.1 | zotarolimus 0.044 | idasanutlin -0.025 | alisertib -0.008 | [2] 0.023 | gefitinib 0.028 | [3] 0.02 | lapatinib 0.058 | pictilisib -0.048

TUBB4A (UniProt P04350)
inactive: [1] 0.188 | filanesib -0.048 | zotarolimus 0.085 | idasanutlin 0.062 | alisertib -0.041 | [2] -0.104 | gefitinib -0.033 | [3] 0.14 | lapatinib 0.052

Next part:

UBE2V2 (UniProt Q15819)
inactive: [1] -0.019 | filanesib -0.05 | zotarolimus 0.009 | idasanutlin 0.006 | alisertib -0.038 | [2] 0.013 | gefitinib 0.039 | [3] 0.025 | lapatinib -0.026 | pictilisib 0.035

TSEN54 (UniProt Q7Z6J9)
inactive: [1] 0.062 | filanesib 0.015 | zotarolimus -0.001 | idasanutlin 0.016 | alisertib -0.045 | [2] 0.034 | gefitinib -0.039 | [3] -0.022 | lapatinib 0.03 | pictilisib -0.203

TTC1 (UniProt Q99614)
inactive: [1] -0.026 | filanesib -0.004 | zotarolimus -0.02 | idasanutlin 0.003 | alisertib -0.033 | [2] -0.008 | gefitinib 0.02 | [3] 0.034 | lapatinib -0.026 | pictilisib 0.036

TSPAN3 (UniProt O60637)
inactive: [1] 0.021 | filanesib -0.016 | zotarolimus 0.028 | idasanutlin 0.018 | alisertib -0.005 | [2] -0.058 | gefitinib -0.039 | [3] 0.052 | lapatinib -0.024

TUBGCP2 isoform 4 (UniProt Q9BSJ2)
inactive: [1] 0.041 | filanesib 0.172 | zotarolimus 0.148 | idasanutlin 0.078 | alisertib -0.085 | [2] -0.025 | gefitinib 0.013 | [3] -0.105 | lapatinib 0.023 | pictilisib 0.033

TXNL1 (UniProt O43396)
inactive: [1] 0.169 | filanesib 0.075 | zotarolimus 0.047 | idasanutlin -0.003 | alisertib -0.005 | [2] 0.084 | gefitinib 0.05 | [3] -0.001 | lapatinib 0.006 | pictilisib 0.017

TXNDC17 (UniProt Q9BRA2)
inactive: [1] 0.018 | filanesib -0.058 | zotarolimus 0.017 | idasanutlin -0.038 | alisertib -0.084 | [2] -0.036 | gefitinib -0.001 | [3] 0.014 | lapatinib -0.01 | pictilisib 0.122

TTC4 (UniProt O95801)
inactive: [1] 0.087 | filanesib 0.004 | zotarolimus 0.016 | idasanutlin -0.003 | alisertib 0.029 | [2] 0.054 | gefitinib 0.032 | [3] -0.072 | lapatinib -0.003 | pictilisib -0.016

UBE2M (UniProt M0QX69)
inactive: [1] 0.152

TYW1 (UniProt Q9NV66)
inactive: [1] -0.16 | filanesib -0.01 | zotarolimus 0.019 | idasanutlin -0.023 | alisertib 0 | [2] 0.095 | gefitinib 0.013 | [3] -0.006 | lapatinib 0 | pictilisib -0.147

TSPYL4 (UniProt Q9UJ04)
inactive: [1] -0.111

UBE2Q1 (UniProt Q7Z7E8)
inactive: [1] -0.09 | filanesib -0.042 | zotarolimus 0.022 | idasanutlin 0.006 | alisertib -0.055 | [2] 0.012 | gefitinib -0.02 | [3] -0.044 | lapatinib 0.01 | pictilisib 0.039
